Screen size: about 52,000 sequences; about 210 (0.4%) were called active.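 How the source made its calls: active means gene whose silencing raises cell survival under the drug, median off-target-corrected z-score across its silencing RNAs 2 or more; inactive means the rest.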 Some of the results follow.
assay: Resistance to Poly (ADP-Ribose) Polymerase inhibitor: Gene Identification via Genome-wide siRNA Screen; details: mouse BRCA2 R2336H ES cells, olaparib, CellTiter-Glo viability; active compounds read high
Summary of the method: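 Mouse BRCA2 R2336H ES cells were reverse-transfected with siRNA (20 nM final), treated at 48 h with 500 nM olaparib, and read by CellTiter-Glo after 72 h. Scores: MAD-based z per siRNA, median per gene, seed off-target correction.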

Row | Sequence | z-score
1 | GGAUCUGGUACCCACCCAATT against Jak2 | inactive: 0.213
2 | GGAAGUGAGGGAAGAAAUUTT against Zcchc9 | inactive: -3.17
3 | GGUGUCAUCUUCCUGCUUGTT against Olfr93 | inactive: -0.749
4 | CCAAUCUGAAGUGCUACUATT against Trim42 | inactive: -1.53
5 | GGUUAUUUCUAAAGUUCCUTT against Sphk1 | inactive: -0.505
6 | GGCCUCACACGUCUUAAAATT against Prkcz | inactive: -0.0567
7 | GGUGAGCCUGGAAAAUUAUTT against Tm4sf6 | inactive: -0.668
8 | GGAGAUUGACGGUGUGAUGTT against Cacna2d2 | inactive: 0.556
9 | CCCAGUCAGAGAUCGAUACTT against Naglu | inactive: 0.216
10 | GGAGAAUGGCAAGAAUGAATT against Gpx1 | inactive: -0.617
11 | GCGGAGAGCGAUGAUCUUUTT against C230090D14 | inactive: 0.502
12 | GGAAAUUUGAAGCAAGAAGTT against Mertk | inactive: 0.406
13 | GGAUGAUAUGGCAUACUUUTT against D330028D13Rik | inactive: -1.24
14 | GGACUGUUCAUUGAUUGUATT against AF397014 | inactive: -1.64
15 | GGUGACUCAGAGAGUAAAATT against D830050J10Rik | inactive: -0.355
16 | CCAAAACAUUAACCUGAAGTT against Pla2g6 | inactive: -0.895
17 | CGGGAAACAUUAGUGAAUUTT against Mapre2 | inactive: -0.0999
18 | GGAAAGAGAAUAAAUAAGGTT against Amhr2 | inactive: 0.0413
19 | GGGUUACCUCCUGACUGUUTT against Olfr930 | inactive: -0.558
20 | GGCUAUUACCAUGGCCACUTT against 2210020M01Rik | inactive: -2.11
21 | GGUAUUGAAAUGGAAAAGGTT against D6Wsu163e | inactive: 0.345
22 | GCAGGUGGAUCUUAUAUGGTT against Cabin1 | inactive: 0.0481

Row | Sequence | z-score
23 | CCUACAAACCUGCUUAUCCTT against Srebf2 | inactive: -0.108
24 | CACCGUAAUAAUCACACUATT against A830025F02Rik | inactive: -1.23
25 | GGUAACUUCAUGUGCAGCATT against AI194318 | inactive: 0.596
26 | GGAACUGAAGGGACAGGAATT against Uchl1 | inactive: -2.03
27 | GGUGGACUCUCUCUCAGAATT against Scara3 | inactive: 0.397
28 | ACAGUGUCUGGCAUCAAACTT against Mrgpra5 | inactive: -0.323
29 | CGGUGUAUCAAGUAAGGUGTT against Aup1 | inactive: -1.04
30 | CCAUAUGCAACCGUUACUUTT against Ciz1 | inactive: -0.493
31 | GGAUAAAUGUCACAGAGCUTT against Cd200 | inactive: 0.566
32 | GCAUGAGAGGUUUCAGUAUTT against Rnf150 | inactive: -1.49
33 | GAAUCUAAAGAUGAACACCTT against 0610009B22Rik | inactive: -0.48
34 | GGAGAUCACAGCAAUCCGATT against Ccna1 | inactive: 0.0362
35 | CGUAUGCAGAACAACAUUUTT against Klhl2 | inactive: -0.199
36 | GGUAGAAGAGAGCUUCAACTT against Alg12 | inactive: 1.42
37 | GCAGUGUAGAACUAGGCUGTT against Taf1c | inactive: -0.496
38 | GGUCUUUUGGUUCCAGAUCTT against Ak4 | inactive: -1.12
39 | GGGAGAAUUGUAGAUUAUUTT against Myo10 | inactive: -0.413
40 | GGCCAGCAGUGUUUUUCUUTT against Acvr1 | inactive: -0.00314
41 | GGCCAUCUGUAAGAGAAGCTT against 4921520G13Rik | inactive: 0.609
42 | CCUACGUGCACAUUUGUUUTT against Arts1 | inactive: -0.0282
43 | GGAAAGGGAAUACUUUGCUTT against Ube2q | inactive: -1.22
44 | GGUGAUGAAACAAAGACAATT against 1700022C21Rik | inactive: -0.919

Row | Sequence | z-score
45 | CGAUAUAGAAUUGUUACAGTT against Nf1 | inactive: -1.11
46 | GGCAGAAUAUACUUGCCCUTT against Attp | inactive: 0.0958
47 | GGAUUUCAAGACAUACAAGTT against Tsnaxip1 | inactive: 0.246
48 | GCCCGAAUACAGGAAGAUCTT against Hspg2 | inactive: 0.761
49 | GGACGAUUCUUUUAUUUGATT against C030014K22Rik | inactive: 0.0715
50 | GGUACCAAUAAUGGAUUUUTT against Ambn | inactive: -1.22
51 | ACUUCUACUGAAGUGAAUUTT against Krtap16-9 | inactive: 0.61
52 | GCGGACCUGCUGUUAUGAATT against Sema3b | inactive: 1.62
53 | GGCCUUUUUUAAAAGAAGCTT against Esr2 | inactive: 0.881
54 | GGCUGCCUUGCUGAUUUGATT against Boc | inactive: -2.5
55 | GGACAAGACUCUCAGUUCATT against Atpaf1 | inactive: -1.93
56 | GCAUUGUGCGAUGAGAAGATT against D430015B01Rik | inactive: -0.987
57 | GCUACACUCCAAGCAAAAUTT against Anapc10 | inactive: -0.843
58 | GGCUCUGACGCAGAUCCAATT against Mki67ip | inactive: -2.23
59 | GCACCUCUCAAAGAGUUUATT against Rin2 | inactive: -0.145
60 | GGAUGAUGAUAACUUACAGTT against Mro | inactive: 0.0314
61 | GGUAUAGCAAGUUAAAAGATT against Hip1 | inactive: -0.426
62 | GGCACAGUUAUGCAAAAUATT against Cpa3 | inactive: 0.937
63 | GAAGUUGCACUUUGGCCAGTT against Imap38 | inactive: 0.673
64 | GGCAUGCUAGGAGACAAGATT against 4831416G18Rik | inactive: -0.618
65 | CCUCUAUGCGUCCAAUAUUTT against Jmjd3 | inactive: -0.207
66 | GGACUUUGAUCAGCUGUCUTT against Tmem17 | inactive: -1.37

Nos. 6 to 8, reprinted for reference:
Row | Sequence | z-score
6 | GGCCUCACACGUCUUAAAATT against Prkcz | inactive: -0.0567
7 | GGUGAGCCUGGAAAAUUAUTT against Tm4sf6 | inactive: -0.668
8 | GGAGAUUGACGGUGUGAUGTT against Cacna2d2 | inactive: 0.556
